In the supplement of paper PMC10849652:
The list shows a part of the results.

Amino acid sequences for entries named in this document (tags omitted). A change or cut given only in a name is not applied to a line headed by its entry.
UniProt Q9H3K2: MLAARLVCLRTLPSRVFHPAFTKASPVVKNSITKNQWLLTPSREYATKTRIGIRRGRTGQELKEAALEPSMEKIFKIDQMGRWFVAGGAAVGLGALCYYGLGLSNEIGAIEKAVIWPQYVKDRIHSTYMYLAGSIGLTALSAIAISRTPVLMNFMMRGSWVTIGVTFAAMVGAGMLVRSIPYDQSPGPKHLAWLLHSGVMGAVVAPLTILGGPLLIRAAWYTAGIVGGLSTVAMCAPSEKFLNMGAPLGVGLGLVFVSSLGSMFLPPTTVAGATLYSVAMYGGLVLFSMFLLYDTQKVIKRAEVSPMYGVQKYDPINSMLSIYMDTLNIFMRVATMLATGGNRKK
UniProt Q86YP4: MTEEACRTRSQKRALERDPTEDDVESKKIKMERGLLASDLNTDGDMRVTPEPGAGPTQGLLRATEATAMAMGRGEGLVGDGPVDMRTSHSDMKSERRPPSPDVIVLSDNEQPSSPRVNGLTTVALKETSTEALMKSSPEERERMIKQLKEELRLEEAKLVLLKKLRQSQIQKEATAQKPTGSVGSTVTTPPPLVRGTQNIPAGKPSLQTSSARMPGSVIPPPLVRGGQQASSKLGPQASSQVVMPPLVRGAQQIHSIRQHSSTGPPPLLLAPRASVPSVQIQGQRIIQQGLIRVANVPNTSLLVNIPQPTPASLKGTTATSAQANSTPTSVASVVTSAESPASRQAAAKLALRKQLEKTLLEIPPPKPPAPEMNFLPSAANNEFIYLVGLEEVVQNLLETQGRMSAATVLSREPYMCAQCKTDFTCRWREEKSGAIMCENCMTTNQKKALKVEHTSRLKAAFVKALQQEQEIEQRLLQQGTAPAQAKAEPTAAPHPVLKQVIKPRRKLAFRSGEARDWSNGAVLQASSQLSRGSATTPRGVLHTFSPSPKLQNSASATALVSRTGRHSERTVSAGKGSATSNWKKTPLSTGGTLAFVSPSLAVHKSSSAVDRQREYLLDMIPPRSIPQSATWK
UniProt O14976: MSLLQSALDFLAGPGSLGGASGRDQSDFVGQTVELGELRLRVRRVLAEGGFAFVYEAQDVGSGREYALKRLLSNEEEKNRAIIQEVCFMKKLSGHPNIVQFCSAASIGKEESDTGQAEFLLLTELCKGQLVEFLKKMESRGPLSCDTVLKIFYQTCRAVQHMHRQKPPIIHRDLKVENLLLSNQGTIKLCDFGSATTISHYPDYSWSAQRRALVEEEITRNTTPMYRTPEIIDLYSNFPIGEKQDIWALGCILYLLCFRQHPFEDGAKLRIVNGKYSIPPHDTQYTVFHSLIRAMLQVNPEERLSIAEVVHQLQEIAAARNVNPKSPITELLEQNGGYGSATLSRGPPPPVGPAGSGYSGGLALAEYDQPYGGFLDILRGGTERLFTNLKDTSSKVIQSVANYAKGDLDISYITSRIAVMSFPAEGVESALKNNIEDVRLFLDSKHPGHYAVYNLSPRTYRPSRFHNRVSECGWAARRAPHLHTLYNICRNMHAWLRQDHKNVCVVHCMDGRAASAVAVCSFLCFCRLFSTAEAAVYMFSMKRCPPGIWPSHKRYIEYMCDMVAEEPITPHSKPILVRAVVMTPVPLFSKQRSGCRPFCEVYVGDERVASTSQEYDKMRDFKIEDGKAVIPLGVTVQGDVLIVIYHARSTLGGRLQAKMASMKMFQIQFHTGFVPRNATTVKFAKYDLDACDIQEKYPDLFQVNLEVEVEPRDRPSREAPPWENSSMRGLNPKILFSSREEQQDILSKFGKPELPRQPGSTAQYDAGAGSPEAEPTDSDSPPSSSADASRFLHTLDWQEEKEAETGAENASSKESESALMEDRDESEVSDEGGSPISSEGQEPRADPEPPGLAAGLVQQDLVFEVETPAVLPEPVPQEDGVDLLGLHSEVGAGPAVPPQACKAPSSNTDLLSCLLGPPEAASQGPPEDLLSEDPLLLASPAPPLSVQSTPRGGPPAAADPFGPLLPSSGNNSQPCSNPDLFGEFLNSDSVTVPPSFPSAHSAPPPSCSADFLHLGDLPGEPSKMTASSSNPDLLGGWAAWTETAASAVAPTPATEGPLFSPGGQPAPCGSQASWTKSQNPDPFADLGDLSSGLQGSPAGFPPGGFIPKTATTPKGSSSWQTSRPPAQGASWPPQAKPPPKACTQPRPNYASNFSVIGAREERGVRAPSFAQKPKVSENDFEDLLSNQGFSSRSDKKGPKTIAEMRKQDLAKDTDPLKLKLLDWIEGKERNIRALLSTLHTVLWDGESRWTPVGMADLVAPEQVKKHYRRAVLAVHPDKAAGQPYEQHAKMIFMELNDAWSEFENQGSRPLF
UniProt P48506: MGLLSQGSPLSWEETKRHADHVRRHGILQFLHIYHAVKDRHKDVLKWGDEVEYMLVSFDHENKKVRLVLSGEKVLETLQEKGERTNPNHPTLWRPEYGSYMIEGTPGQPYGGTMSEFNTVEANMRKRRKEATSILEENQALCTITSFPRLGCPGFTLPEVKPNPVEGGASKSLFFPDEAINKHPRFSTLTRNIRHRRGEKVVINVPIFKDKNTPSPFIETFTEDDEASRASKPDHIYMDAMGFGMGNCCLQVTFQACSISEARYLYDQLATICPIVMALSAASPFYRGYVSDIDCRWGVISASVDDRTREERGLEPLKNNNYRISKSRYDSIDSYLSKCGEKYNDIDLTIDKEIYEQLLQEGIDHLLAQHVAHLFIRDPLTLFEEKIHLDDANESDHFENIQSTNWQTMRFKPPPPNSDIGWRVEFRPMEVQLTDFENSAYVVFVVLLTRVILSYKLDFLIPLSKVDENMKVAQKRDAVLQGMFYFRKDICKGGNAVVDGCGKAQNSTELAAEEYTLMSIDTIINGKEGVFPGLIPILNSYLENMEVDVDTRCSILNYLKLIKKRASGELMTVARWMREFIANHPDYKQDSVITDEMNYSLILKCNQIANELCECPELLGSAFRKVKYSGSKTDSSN
UniProt Q06210: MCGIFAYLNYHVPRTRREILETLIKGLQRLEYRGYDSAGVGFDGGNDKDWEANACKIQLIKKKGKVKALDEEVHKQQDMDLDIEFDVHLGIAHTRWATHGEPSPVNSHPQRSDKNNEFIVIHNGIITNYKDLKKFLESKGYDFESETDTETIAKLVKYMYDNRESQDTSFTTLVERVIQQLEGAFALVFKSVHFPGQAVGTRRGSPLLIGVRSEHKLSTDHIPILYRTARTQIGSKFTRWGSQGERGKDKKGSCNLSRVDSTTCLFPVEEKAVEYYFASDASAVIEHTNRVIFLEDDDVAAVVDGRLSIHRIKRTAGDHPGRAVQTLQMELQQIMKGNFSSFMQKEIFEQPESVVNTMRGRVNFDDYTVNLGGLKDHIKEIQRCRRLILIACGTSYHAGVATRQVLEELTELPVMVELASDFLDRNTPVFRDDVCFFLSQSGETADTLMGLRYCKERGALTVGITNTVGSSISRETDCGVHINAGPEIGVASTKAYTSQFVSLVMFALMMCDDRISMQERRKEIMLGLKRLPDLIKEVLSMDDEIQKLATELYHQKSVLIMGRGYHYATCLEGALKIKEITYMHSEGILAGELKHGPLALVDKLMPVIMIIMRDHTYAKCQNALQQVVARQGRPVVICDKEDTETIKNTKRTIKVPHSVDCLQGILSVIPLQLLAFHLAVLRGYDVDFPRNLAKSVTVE
UniProt P51116, whole entry, looked up: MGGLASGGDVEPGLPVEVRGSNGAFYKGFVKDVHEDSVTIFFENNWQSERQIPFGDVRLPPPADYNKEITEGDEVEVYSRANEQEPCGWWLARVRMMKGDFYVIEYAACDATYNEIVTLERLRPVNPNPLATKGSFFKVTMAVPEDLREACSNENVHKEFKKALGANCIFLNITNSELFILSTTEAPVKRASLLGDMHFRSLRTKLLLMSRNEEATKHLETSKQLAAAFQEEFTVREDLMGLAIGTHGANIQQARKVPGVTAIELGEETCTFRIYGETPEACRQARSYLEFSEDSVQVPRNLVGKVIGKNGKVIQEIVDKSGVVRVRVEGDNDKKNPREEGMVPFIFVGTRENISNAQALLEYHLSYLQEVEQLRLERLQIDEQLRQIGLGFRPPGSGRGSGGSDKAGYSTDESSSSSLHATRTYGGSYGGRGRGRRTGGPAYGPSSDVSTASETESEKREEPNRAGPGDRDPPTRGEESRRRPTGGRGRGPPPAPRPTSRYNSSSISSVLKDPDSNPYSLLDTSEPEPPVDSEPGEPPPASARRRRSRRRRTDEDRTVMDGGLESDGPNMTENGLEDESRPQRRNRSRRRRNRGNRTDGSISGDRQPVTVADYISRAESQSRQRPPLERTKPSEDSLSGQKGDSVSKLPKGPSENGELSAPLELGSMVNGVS
UniProt P22102: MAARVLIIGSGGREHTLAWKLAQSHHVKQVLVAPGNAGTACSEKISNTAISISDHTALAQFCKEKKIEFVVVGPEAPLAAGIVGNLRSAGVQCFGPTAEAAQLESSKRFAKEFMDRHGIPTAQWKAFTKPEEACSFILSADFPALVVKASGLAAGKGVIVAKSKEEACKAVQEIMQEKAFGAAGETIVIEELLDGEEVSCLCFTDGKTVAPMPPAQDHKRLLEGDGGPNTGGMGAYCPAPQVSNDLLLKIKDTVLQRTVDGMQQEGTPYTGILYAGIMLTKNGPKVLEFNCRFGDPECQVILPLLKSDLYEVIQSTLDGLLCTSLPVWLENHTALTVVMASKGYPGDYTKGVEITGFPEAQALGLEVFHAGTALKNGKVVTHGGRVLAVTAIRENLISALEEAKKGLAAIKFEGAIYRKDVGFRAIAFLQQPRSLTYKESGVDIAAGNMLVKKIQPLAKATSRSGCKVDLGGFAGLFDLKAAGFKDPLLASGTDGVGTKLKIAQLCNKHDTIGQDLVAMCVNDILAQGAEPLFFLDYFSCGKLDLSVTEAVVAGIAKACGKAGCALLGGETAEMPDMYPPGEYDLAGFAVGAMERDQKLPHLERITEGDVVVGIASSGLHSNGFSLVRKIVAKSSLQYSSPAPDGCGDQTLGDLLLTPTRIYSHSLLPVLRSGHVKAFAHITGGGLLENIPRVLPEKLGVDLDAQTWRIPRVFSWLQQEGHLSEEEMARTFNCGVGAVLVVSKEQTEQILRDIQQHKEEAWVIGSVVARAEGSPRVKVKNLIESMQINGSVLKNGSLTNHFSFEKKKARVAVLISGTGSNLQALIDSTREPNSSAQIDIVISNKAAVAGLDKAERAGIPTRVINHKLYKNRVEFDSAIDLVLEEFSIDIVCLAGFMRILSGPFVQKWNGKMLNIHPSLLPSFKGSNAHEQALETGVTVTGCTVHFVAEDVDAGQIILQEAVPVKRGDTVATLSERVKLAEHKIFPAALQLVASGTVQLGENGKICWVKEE
UniProt Q8NB37: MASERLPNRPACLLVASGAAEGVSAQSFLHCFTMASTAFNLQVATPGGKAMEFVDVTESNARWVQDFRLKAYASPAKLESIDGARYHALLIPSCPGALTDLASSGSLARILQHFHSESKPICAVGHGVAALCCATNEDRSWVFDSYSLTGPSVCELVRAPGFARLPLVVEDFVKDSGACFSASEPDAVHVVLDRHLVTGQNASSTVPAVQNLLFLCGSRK
UniProt O95749: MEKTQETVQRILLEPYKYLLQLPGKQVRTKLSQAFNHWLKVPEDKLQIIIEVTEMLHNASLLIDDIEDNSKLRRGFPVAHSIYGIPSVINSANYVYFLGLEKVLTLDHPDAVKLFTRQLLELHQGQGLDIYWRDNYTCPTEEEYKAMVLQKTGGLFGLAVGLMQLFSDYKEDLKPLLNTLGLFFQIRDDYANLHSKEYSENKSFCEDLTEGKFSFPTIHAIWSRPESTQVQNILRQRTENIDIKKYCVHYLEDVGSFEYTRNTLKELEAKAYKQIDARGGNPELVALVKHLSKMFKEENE
UniProt Q06546: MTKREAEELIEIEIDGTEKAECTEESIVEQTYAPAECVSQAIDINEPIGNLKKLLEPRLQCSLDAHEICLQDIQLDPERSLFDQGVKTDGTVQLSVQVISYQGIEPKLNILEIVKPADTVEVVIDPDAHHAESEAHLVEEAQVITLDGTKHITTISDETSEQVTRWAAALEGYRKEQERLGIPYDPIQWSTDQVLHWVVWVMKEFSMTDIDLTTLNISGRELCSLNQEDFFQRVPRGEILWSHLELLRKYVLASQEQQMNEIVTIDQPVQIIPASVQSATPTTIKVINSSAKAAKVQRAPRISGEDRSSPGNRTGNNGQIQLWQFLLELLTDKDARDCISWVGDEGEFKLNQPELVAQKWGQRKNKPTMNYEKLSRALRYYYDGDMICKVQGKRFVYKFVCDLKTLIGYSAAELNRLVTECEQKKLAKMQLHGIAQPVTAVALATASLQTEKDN

Compound: COC1=CC=C(C=C1)CN2C=CC3=C2C=C(C=C3)C(=O)NO
Test: log2 fold change, soluble protein after heating vs DMSO (PISA); higher = thermal stabilisation; K562 cells, 10 uM, 30 min; active = over 0.2 and 3.5 SD of the protein, either way, in both replicates (recomputed)
Procedure, shortened: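 Aliquots of K562 cells (2×10^6 cells/mL) treated with 10 μM compound for 30 min were heated for 3 min over 48°C-58°C. After pooling and extraction in PBS with 0.5% NP-40 at 4°C, soluble protein from a 21,000xg, 90 min spin was quantified by TMTpro 16plex LC-MS/MS with channel sums equalised. Thermal stability is expressed against control samples, from duplicates, as a log2 fold change.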

log2 fold change, inactive:
GALE (UniProt Q14376) 0, GALC (UniProt P54803) 0.007, GCAT isoform 2 (UniProt O75600) -0.147, GBA (UniProt P04062) -0.021, GATA1 (UniProt P15976) -0.023, GGNBP2 (UniProt Q9H3C7) -0.14, GALNS (UniProt P34059) 0.133, GHITM (UniProt Q9H3K2) 0.056, GATAD2A isoform 3 (UniProt Q86YP4) 0.16, GAK (UniProt O14976) -0.013, FSCN1 (UniProt Q16658) 0.094, GADD45GIP1 (UniProt Q8TAE8) -0.019, GART (UniProt C9JZG2) -0.008, GCN1 (UniProt Q92616) -0.02, GABARAPL1 isoform 2 (UniProt Q9H0R8) 0.053, FRG1 (UniProt Q14331) -0.212, GDAP1 (UniProt Q8TB36) -0.008, GCLC (UniProt P48506) -0.009, G3BP2 (UniProt Q9UN86) 0, GFPT1 (UniProt Q06210) 0.023, FUT11 (UniProt Q495W5) -0.061, FXR2 (UniProt P51116) 0.157, FUCA2 (UniProt Q9BTY2) -0.094, FUBP3 (UniProt Q96I24) 0.129, GART (UniProt P22102) -0.002, FUBP1 isoform 2 (UniProt Q96AE4) -0.011, FTSJ1 (UniProt Q9UET6) -0.091, GANAB isoform 2 (UniProt Q14697) 0.019, GATD1 (UniProt Q8NB37) -0.104, GEMIN6 (UniProt Q8WXD5) 0.001, GGPS1 (UniProt O95749) -0.044, GABPA (UniProt Q06546) 0.01, FRRS1 (UniProt Q6ZNA5) 0.019
